Experimental data from US20230348369A1 (Cytokinetics, Inc., priority 2020, published 2023).
Structures were worked out from names or drawings and are uncertain.

Amino acid sequences for entries named in this document (tags omitted).
UniProt P43490, whole entry: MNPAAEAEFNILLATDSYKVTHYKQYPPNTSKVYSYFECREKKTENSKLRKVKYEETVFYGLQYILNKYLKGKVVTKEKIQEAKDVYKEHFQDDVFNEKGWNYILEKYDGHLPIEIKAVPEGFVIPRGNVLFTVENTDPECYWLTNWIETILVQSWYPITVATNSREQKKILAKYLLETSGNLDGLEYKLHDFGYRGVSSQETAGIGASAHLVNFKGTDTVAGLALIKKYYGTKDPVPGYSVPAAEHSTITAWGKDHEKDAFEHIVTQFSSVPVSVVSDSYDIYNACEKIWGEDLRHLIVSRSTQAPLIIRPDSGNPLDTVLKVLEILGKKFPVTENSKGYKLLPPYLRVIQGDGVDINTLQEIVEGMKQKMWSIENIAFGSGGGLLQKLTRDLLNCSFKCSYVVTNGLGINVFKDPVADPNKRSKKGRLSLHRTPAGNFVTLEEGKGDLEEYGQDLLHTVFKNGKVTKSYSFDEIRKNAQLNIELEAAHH

Target: human NAMPT (Homo sapiens, UniProt P43490)
Test: Human recombinant enzyme assay (NMN fluorescence biochemical assay, activation of NAMPT)
Conditions: for AC1.4 Human: Table A, NMN formation, 60 min; for EC50: read-out: EC50 Human, Table A, NMN formation, 60 min
Method: Compounds described herein were assayed for their ability to stimulate the synthesis of nicotinamide mononucleotide (NMN) by the enzyme NAMPT. The human recombinant enzyme assay measures the activation of the enzyme activity by compounds using recombinant enzyme and substrates in a buffered cell-free system. The assay conditions closely mimic cellular environments. Dose responses were measured using an assay to detect the formation of nicotinamide mono-nucleotide. All experiments were performed in the 384-well format. Generally, 0.5 μL of DMSO containing varying concentrations of the test compound was mixed with 10 μL of the enzyme reagent solution. Enzyme reactions were initiated with the addition of 10 μL of a solution containing the substrates. The final assay conditions were as follows: 6 nM human NAMPT, 2.5 mM ATP, 20 μM PRPP and 150 μM nicotinamide in 50 mM HEPES, pH 7.2, 1 mM DTT, 1 mM CHAPS 50 mM NaCl, 100 mM MgCl2. Following an incubation of 60 min at ambient temperature, 10 μL of 20% acetophenone in DMSO was added, followed by 10 μL of 2 M KOH and 40 μL of formic acid. The plates were read for fluorescence (Excitation/Emission=355 nm/460 nm) using an EnVision plate reader after 40 mins of incubation at ambient temperature. The potency measurements for compounds, are quantified and represented as AC1.4 (the concentration of compounds that generates 40% higher activity over basal) and EC50 (concentration of the compound that gives half-maximal activation).

| Structure (SMILES) | AC1.4 Human | EC50 |
| --- | --- | --- |
| Cc1cccc(C(=O)N2CCC(CCCCNC(=O)NCc3ccc(Cl)cc3)CC2)n1 | 1.1 µM | 2.9 µM |
| Cc1ccccc1C(=O)N1CCC(CCCCNC(=O)NCc2ccc(Cl)cc2)CC1 | 0.1 µM | 0.2 µM |
| Cc1cccc(C(=O)N2CCC(CCCCNC(=O)NCc3ccc(Cl)cc3)CC2)c1 | 0.8 µM | 2 µM |
| COc1ccc(CNC(=O)NC2CC3(C2)CC(c2nnc(-c4ccc(C)nc4)o2)C3)cc1 (stereo not shown) | 6.2 µM | 28.5 µM |
| COc1ccc(CNC(=O)NC2CC3(CCN(C(=O)OC(C)(C)C)C3)C2)cc1 (stereo not shown) | 19.3 µM | 30.4 µM |
